The comparison behind a weaker result is the experiment's own reference, which may not be listed here. For at least one entry, the source does not settle the construct or the ends of the probe. At least one verdict was read from the data and is not stated in words by the source.
Molecular target: M.MpeI (called wild type) Q68R,K71R,S295P (UniProt Q8EVR5)
Test: SDS-PAGE covalent complex
Details: 160 uM SAM, 160 uM SAM or sinefungin, 37 C, recombinant protein

Does “CAGCATTATCACAGCGTTTACACAATAACC (double strand) [30-5BrC / 30-5mC-down]” bind (10 mM DTT, signal largely lost, 5-bromocytosine at position 15 of strand 1, 5mC at position 15 of strand 2, covalent SDS-PAGE: 10 mM Tris-HCl pH 7.9, 50 mM NaCl, residues 1-395, protein details: C-terminal LEHHHHHH, label: 5' Cy3 or 5' 32P on strand 2, letters put together from the description)?
Result: binds more weakly

Does “CAGCATTATCACAGCGTTTACACAATAACC (double strand) [30-5BrC / 30-5mC-down]” bind (no DTT, 5-bromocytosine at position 15 of strand 1, 5mC at position 15 of strand 2, covalent SDS-PAGE: 10 mM Tris-HCl pH 7.9, 50 mM NaCl, +/-10 mM DTT, residues 1-395, protein details: C-terminal LEHHHHHH, label: 5' Cy3 or 5' 32P on strand 2, letters put together from the description)?
Result: binds more weakly

Does “CAGCATTATCACAGCGTTTACACAATAACC (double strand) [30-5FC / 30-5mC-down]” bind (10 mM DTT, 5-fluorocytosine at position 15 of strand 1, 5mC at position 15 of strand 2, covalent SDS-PAGE: 10 mM Tris-HCl pH 7.9, 50 mM NaCl, residues 1-395, protein details: C-terminal LEHHHHHH, label: 5' Cy3 or 5' 32P on strand 2, letters put together from the description)?
Result: binds

Does “CAGCATTATCACAGCGTTTACACAATAACC (double strand) [30-5FC / 30-5mC-down]” bind (no DTT, 5-fluorocytosine at position 15 of strand 1, 5mC at position 15 of strand 2, covalent SDS-PAGE: 10 mM Tris-HCl pH 7.9, 50 mM NaCl, +/-10 mM DTT, residues 1-395, protein details: C-terminal LEHHHHHH, label: 5' Cy3 or 5' 32P on strand 2, letters put together from the description)?
Result: binds

Does “CAGCATTATCACAGCGTTTACACAATAACC (double strand) [30-5IC / 30-5mC-down]” bind (10 mM DTT, signal largely lost, 5-iodocytosine at position 15 of strand 1, 5mC at position 15 of strand 2, covalent SDS-PAGE: 10 mM Tris-HCl pH 7.9, 50 mM NaCl, residues 1-395, protein details: C-terminal LEHHHHHH, label: 5' Cy3 or 5' 32P on strand 2, letters put together from the description)?
Result: binds more weakly

Does “CAGCATTATCACAGCGTTTACACAATAACC (double strand) [30-5IC / 30-5mC-down]” bind (no DTT, 5-iodocytosine at position 15 of strand 1, 5mC at position 15 of strand 2, covalent SDS-PAGE: 10 mM Tris-HCl pH 7.9, 50 mM NaCl, +/-10 mM DTT, residues 1-395, protein details: C-terminal LEHHHHHH, label: 5' Cy3 or 5' 32P on strand 2, letters put together from the description)?
Result: binds more weakly

Which results are given for “CAGCATTATCACAGCGTTTACACAATAACC (double strand) [30-5OHC / 30-5mC-down]”?
binding result (10 mM DTT, less DTT-sensitive than 5BrC/5IC, 5-hydroxycytosine at position 15 of strand 1, 5mC at position 15 of strand 2, covalent SDS-PAGE: 10 mM Tris-HCl pH 7.9, 50 mM NaCl, residues 1-395, protein details: C-terminal LEHHHHHH, label: 5' Cy3 or 5' 32P on strand 2, letters put together from the description): binds more weakly; binding result (no DTT, 5-hydroxycytosine at position 15 of strand 1, 5mC at position 15 of strand 2, covalent SDS-PAGE: 10 mM Tris-HCl pH 7.9, 50 mM NaCl, +/-10 mM DTT, residues 1-395, protein details: C-terminal LEHHHHHH, label: 5' Cy3 or 5' 32P on strand 2, letters put together from the description): binds more weakly

Does “CAGCATTATCACAGCGTTTACACAATAACC (double strand) [30-5hmC / 30-5mC-down]” bind (10 mM DTT, less DTT-sensitive than 5BrC/5IC, 5-hydroxymethylcytosine at position 15 of strand 1, 5mC at position 15 of strand 2, covalent SDS-PAGE: 10 mM Tris-HCl pH 7.9, 50 mM NaCl, residues 1-395, protein details: C-terminal LEHHHHHH, label: 5' Cy3 or 5' 32P on strand 2, letters put together from the description)?
Result: binds more weakly

Does “CAGCATTATCACAGCGTTTACACAATAACC (double strand) [30-5hmC / 30-5mC-down]” bind (no DTT, 5-hydroxymethylcytosine at position 15 of strand 1, 5mC at position 15 of strand 2, covalent SDS-PAGE: 10 mM Tris-HCl pH 7.9, 50 mM NaCl, +/-10 mM DTT, residues 1-395, protein details: C-terminal LEHHHHHH, label: 5' Cy3 or 5' 32P on strand 2, letters put together from the description)?
Result: binds more weakly
